Here are results for 16 compounds from the supplement of paper PMC4604168 (melanoma cell lines).

The list shows a part of the results. Many values rest on one well or one pass, so single values are uncertain.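 Cells were imaged in 1,536-well plates, and nuclei stained with an antibody against cleaved PARP were counted against all DNA-stained nuclei to give the apoptosis fraction. Screening doses were chosen to leave most cells alive, and resting and induced cleaved-PARP levels differ strongly between cell lines.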

For the assay, the system named is A101D. The assay can be described thus: cleaved PARP positive nuclei fraction relative to DMSO control; melanoma cells; higher = more apoptosis. The conditions noted are these: library dose: low library concentration; 72 h.
On to `O=C(Nc1ccccc1)c1cc([N+](=O)[O-])ccc1Cl` + COc1ccc(COc2ccc(Cc3cnc(N)nc3N)cc2OC)cc1 [GW2580] (first compound 2 µM, partner dose 1 µM), for which the “cleaved PARP positive nuclei fraction” value turned out to be 49.7%.
The figure for `NCC(=O)Nc1ccc(-n2nc(C(F)(F)F)cc2-c2ccc3c(ccc4ccccc43)c2)cc1` + COc1ccc(-c2ccc3c(N4CCOCC4)nc(N4C[C@@H](C)O[C@@H](C)C4)nc3n2)cc1CO [KU0063794] (first compound 1 µM, partner dose 0.02 µM) is 69.8%.
In the case of `COc1cc2c(Oc3ccc4[nH]c(C)cc4c3F)ncnc2cc1OCCCN1CCCC1` [cediranib] + COc1ccc(-c2ccc3c(N4CCOCC4)nc(N4C[C@@H](C)O[C@@H](C)C4)nc3n2)cc1CO [KU0063794] (first compound 0.4 µM, partner dose 0.02 µM) it was 105%; in that of `O=S(=O)(c1ccccc1)N(CC(F)(F)F)c1ccc(C(O)(C(F)(F)F)C(F)(F)F)cc1` + CC(C)CCN1c2nc(Nc3cc(F)c(O)c(F)c3)ncc2N(C)C(=O)C1C [BID1870] (first compound 1.4 µM, partner dose 0.2 µM), 63.3%.
In the case of `NCC(=O)Nc1ccc(-n2nc(C(F)(F)F)cc2-c2ccc3c(ccc4ccccc43)c2)cc1` + COc1cc2ncnc(Nc3ccc(Oc4ccccc4)cc3)c2cc1OC [SrcI1] (first compound 1 µM, partner dose 2 µM) it was 105%.
Take `NCC(=O)Nc1ccc(-n2nc(C(F)(F)F)cc2-c2ccc3c(ccc4ccccc43)c2)cc1` + O=C1NC(=O)/C(=C/c2ccc(-c3ccc(F)cc3O)o2)S1 [AS252424] (first compound 1 µM, partner dose 1 µM): the “cleaved PARP positive nuclei fraction” value came out at 98.8%.
In the case of `COc1cc2ncnc(Nc3ccc(Oc4ccccc4)cc3)c2cc1OC` + c1cc(-c2cnn3cc(-c4ccc(OCCN5CCCCC5)cc4)cnc23)ccn1 [Dorsomorphin] (first compound 2 µM, partner dose 0.4 µM), the “cleaved PARP positive nuclei fraction” value worked out at 48.9%.
`CCc1ccc(CCOc2ccc(CC3SC(=O)NC3=O)cc2)nc1` (stereo unspecified) [pioglitazone] + COC(=O)c1sccc1S(=O)(=O)Nc1ccc(Nc2ccccc2)cc1OC [GSK0660] (first compound 2 µM, partner dose 1 µM): the “cleaved PARP positive nuclei fraction” value was 145%.
As for `O=C(Nc1ccccc1)c1cc([N+](=O)[O-])ccc1Cl` + COc1ccc2c(c1)CCC1C2CCC2(C)C(NCCCCCCN3C(=O)C=CC3=O)CCC12 [U73122] (first compound 2 µM, partner dose 0.4 µM), the “cleaved PARP positive nuclei fraction” value amounted to 180%.
The figure for `COc1cc2c(Oc3ccc4[nH]c(C)cc4c3F)ncnc2cc1OCCCN1CCCC1` [cediranib] + O=C1NC(=O)/C(=C/c2ccc(-c3ccc(F)cc3O)o2)S1 [AS252424] (first compound 0.4 µM, partner dose 1 µM) is 105%; for `O=C(O)c1ccc(-c2c[nH]c3ncc(-c4ccccc4)cc23)cc1C1CCCC1` + CCc1ccc(CCOc2ccc(CC3SC(=O)NC3=O)cc2)nc1 [pioglitazone] (first compound 0.16 µM, partner dose 2 µM) it is 107%; for `COc1cc2ncnc(Nc3ccc(Oc4ccccc4)cc3)c2cc1OC` + Oc1cc(-c2nc(-c3ccccc3)[nH]c2-c2ccncc2)ccc1Cl [L779450] (first compound 2 µM, partner dose 0.2 µM) it is 59.6%.
Regarding `Oc1nc(-c2ccc(C(F)(F)F)cc2)nc2c1CSCC2` + O=c1cc(-c2cccc3c2Sc2ccccc2S3)oc(N2CCOCC2)c1 [KU55933] (first compound 2 µM, partner dose 1 µM), the “cleaved PARP positive nuclei fraction” value amounted to 54.8%.
In the case of `COc1ccc(-c2ccc3c(N4CCOCC4)nc(N4C[C@@H](C)O[C@@H](C)C4)nc3n2)cc1CO` + O=S(=O)(c1ccccc1)N(CC(F)(F)F)c1ccc(C(O)(C(F)(F)F)C(F)(F)F)cc1 [T0901317] (first compound 0.02 µM, partner dose 1.4 µM), the “cleaved PARP positive nuclei fraction” value is 123%.
On to `N#Cc1c(O)c2c(-c3ccc(-c4ccccc4O)cc3)csc2[nH]c1=O` + Cn1cc(/C=C2\C(=O)Nc3cccnc32)c2ccccc21 [GW441756] (first compound 2 µM, partner dose 0.4 µM), for which the “cleaved PARP positive nuclei fraction” value came to 90.7%.
On to `NCC(=O)Nc1ccc(-n2nc(C(F)(F)F)cc2-c2ccc3c(ccc4ccccc43)c2)cc1` + O=C(O)C(=O)Nc1sc2c(c1C(=O)O)CCNC2 [TCS401] (first compound 1 µM, partner dose 1.66667 µM), for which the “cleaved PARP positive nuclei fraction” value came to 70.3%.
